# Test results taken from publication PMC7819943, “Rice protein-binding microarrays: a tool to detect cis-acting elements near promoter regions in rice”.
# Chains of the proteins cited; added tags and fusions are not shown.
# UniProt Q0JBA9, entry or part of it: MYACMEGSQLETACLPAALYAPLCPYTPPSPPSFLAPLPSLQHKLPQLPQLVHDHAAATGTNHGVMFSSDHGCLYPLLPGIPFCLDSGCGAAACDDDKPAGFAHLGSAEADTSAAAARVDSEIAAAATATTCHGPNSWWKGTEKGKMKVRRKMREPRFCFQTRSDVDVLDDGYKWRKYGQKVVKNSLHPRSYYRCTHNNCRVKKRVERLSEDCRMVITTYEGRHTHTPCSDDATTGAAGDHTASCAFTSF
# Some of the results follow.
# Biological target: OsWRKY34 (Oryza sativa, UniProt Q0JBA9 1-250)
# Assay: protein-binding microarray (RPBM); PBS, 2% BSA, 51.3 ng/ul salmon testes DNA, 50 uM zinc acetate, 200 nM TF, 25 C, 1 h; high values mean tight binding
# Details: protein: recombinant; tags: N-terminal polyhistidine and DsRed monomer fusion (pET32a); label: CyDye5-dUTP incorporated in the synthesized complementary strand; 3' TTTTT single-stranded linker to array surface; dsDNA, one strand shown
# In short: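 Transcription factors were made in E. coli BL21-CodonPlus as N-terminal fusions to a polyhistidine tag and DsRed, then purified on Ni–NTA. After primer extension with Cy5-dUTP and blocking with 2% BSA, a custom Agilent array was exposed for 1 h at 25 °C to 200 nM protein in PBS, 2% BSA, salmon testes DNA and 50 µM zinc acetate. Washed arrays were scanned on an Axon 4000B, and the binding signal is per-feature fluorescence intensity in arbitrary units.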
row,Sequence,binding signal
1,TTGCAATGCGTGCACCATGTCGGATCGATACCACCTTTGACGGAGTCACCTAGTGCAG,8090 fluorescence intensity (a.u.)
2,TGAGCCGTGGGCAAAGCTCAACCTGTAATTCAGTTTCTTGCGGAGTCACCTAGTGCAG,8100 fluorescence intensity (a.u.)
3,AGGTTGTTATATTTTTGGACTGATGGGGTATATTACTAACCGGAGTCACCTAGTGCAG,8180 fluorescence intensity (a.u.)
4,GACTCCGCCGGCCCACTCGCTCACTGCGCCGCCGCTCATCCGGAGTCACCTAGTGCAG,10400 fluorescence intensity (a.u.)
5,CCGACCTCCCCGCCAATTTTTCCGCCTGTTTTAGTTTTCCCGGAGTCACCTAGTGCAG,8030 fluorescence intensity (a.u.)
6,CTTGTCACCATTGCATCATGCTATCTTAGCTCTTGCTAAACGGAGTCACCTAGTGCAG,11200 fluorescence intensity (a.u.)
7,TCCACACTACTACAGTCCACAGCATCTCCATTCCCATCTCCGGAGTCACCTAGTGCAG,8950 fluorescence intensity (a.u.)
8,GCCCGTCCACCTCCCCGTCGATTGGTTGGTCTTAATGGCTCGGAGTCACCTAGTGCAG,10800 fluorescence intensity (a.u.)
9,TTTGCATTGTCGTTTGCCGTGTTAGTTTAGTGAGCAGATTCGGAGTCACCTAGTGCAG,8940 fluorescence intensity (a.u.)
10,GTTCTTACCTGTCCGAGCTGTGTTCTCCTTCTACCGTTCTCGGAGTCACCTAGTGCAG,9210 fluorescence intensity (a.u.)
11,CCTCACCTCCACGTGGGCCCCACCTAACCTGGACCCCACACGGAGTCACCTAGTGCAG,8460 fluorescence intensity (a.u.)
12,CCGCCGAGCAGCTAGCACCGGAGTGTTGGGAGGGGAGGCTCGGAGTCACCTAGTGCAG,8500 fluorescence intensity (a.u.)
13,ACCTTAGCCAGTTAGCCTCTGCCGCCGCGACCGACCGCGACGGAGTCACCTAGTGCAG,9350 fluorescence intensity (a.u.)
14,ACATGATGCTTAGGGGCTGGTCAGATTGATACCATTTTTACGGAGTCACCTAGTGCAG,8500 fluorescence intensity (a.u.)
15,ACTCACACTAGCTTGAAACTATCTGCGTACTCAAATTCAACGGAGTCACCTAGTGCAG,8080 fluorescence intensity (a.u.)
16,GGTTCTTTGTTTCCGTTTGCTTTACCATTTTTGTTCCTTTCGGAGTCACCTAGTGCAG,10000 fluorescence intensity (a.u.)
17,ACCTCGACGCCTCGCCTGCGGCCGCCTCCGCCTTGCCCGCCGGAGTCACCTAGTGCAG,9580 fluorescence intensity (a.u.)
18,CCCACAAATGCCGTTGTTGTACTTCTGACTGGGGAGAGGACGGAGTCACCTAGTGCAG,9060 fluorescence intensity (a.u.)
19,TATCGATCTATATAAACCACATTCCTGGCCTGCTTTTTCTCGGAGTCACCTAGTGCAG,8380 fluorescence intensity (a.u.)
20,CCGCTACCTCCGCCGTCGCCGTCCTCGCCGCTCCCGCGCCCGGAGTCACCTAGTGCAG,9080 fluorescence intensity (a.u.)
21,CGCCCGCTTGTCTTGTCTGACTTCTTGTTGCCTCTTGCCTCGGAGTCACCTAGTGCAG,13100 fluorescence intensity (a.u.)

# Exported bar-delimited: entries from further up.
row | Sequence | binding signal
11 | CCTCACCTCCACGTGGGCCCCACCTAACCTGGACCCCACACGGAGTCACCTAGTGCAG | 8460 fluorescence intensity (a.u.)
12 | CCGCCGAGCAGCTAGCACCGGAGTGTTGGGAGGGGAGGCTCGGAGTCACCTAGTGCAG | 8500 fluorescence intensity (a.u.)
13 | ACCTTAGCCAGTTAGCCTCTGCCGCCGCGACCGACCGCGACGGAGTCACCTAGTGCAG | 9350 fluorescence intensity (a.u.)
14 | ACATGATGCTTAGGGGCTGGTCAGATTGATACCATTTTTACGGAGTCACCTAGTGCAG | 8500 fluorescence intensity (a.u.)
15 | ACTCACACTAGCTTGAAACTATCTGCGTACTCAAATTCAACGGAGTCACCTAGTGCAG | 8080 fluorescence intensity (a.u.)
16 | GGTTCTTTGTTTCCGTTTGCTTTACCATTTTTGTTCCTTTCGGAGTCACCTAGTGCAG | 10000 fluorescence intensity (a.u.)

# (list continues)

row,Sequence,binding signal
1,CACTCCACAGCCATCATCGCGCTCGCACCCGCGAAAACGCCGGAGTCACCTAGTGCAG,8160 fluorescence intensity (a.u.)
2,GCTCAAATCTTAGCTCTAACCACGCGGCCCAACCTGGAATCGGAGTCACCTAGTGCAG,8160 fluorescence intensity (a.u.)
3,GCAACCATAATTTATTGCCCTGCACAGTTGCATTAACTTCCGGAGTCACCTAGTGCAG,8300 fluorescence intensity (a.u.)
4,GACTTTTCTTCCTAGATAGGATCATTTTCATACTTTATTGCGGAGTCACCTAGTGCAG,9130 fluorescence intensity (a.u.)
5,TTTTTGTTTTGGGCTTTTATTGTATCCAATGGGTCATGAACGGAGTCACCTAGTGCAG,8830 fluorescence intensity (a.u.)
6,GATTGCGGCGCGGCGCGGGAGGGGATTTGTTCGTGGATCGCGGAGTCACCTAGTGCAG,8640 fluorescence intensity (a.u.)
7,TAGATATCTGACCATTAATGTACTTGCTTTCTACACCAAACGGAGTCACCTAGTGCAG,8370 fluorescence intensity (a.u.)
8,ATTTCTTAAAAGCTTTTCTTACATACATTTTAATAATCTTCGGAGTCACCTAGTGCAG,9200 fluorescence intensity (a.u.)
9,TCATCTTCCCCGAGCTGGACCCCACCGCCACGTCAGCCAGCGGAGTCACCTAGTGCAG,8230 fluorescence intensity (a.u.)
10,TTATGGTTTTTCCTTTTATTGTACTTTATCTTATAACATTCGGAGTCACCTAGTGCAG,9900 fluorescence intensity (a.u.)
11,TCTCCTTATACACTCATCATCCTTGTATAGACTTAAAAAGCGGAGTCACCTAGTGCAG,8070 fluorescence intensity (a.u.)
12,AGTATAAGCATGTGTGGGTTGGGATCGTATTGATATCAAACGGAGTCACCTAGTGCAG,13800 fluorescence intensity (a.u.)
13,CCGTCTCGTCTCGTCTCGTCTCCCACCTCGCACCATTCCTCGGAGTCACCTAGTGCAG,10800 fluorescence intensity (a.u.)
14,GAAAATGATCTCCTATTTTTATGCAGTGGTATTATTTACACGGAGTCACCTAGTGCAG,9040 fluorescence intensity (a.u.)
15,ACTTTTGTCTGGATGTTGCTTGCGTTCGTTCGTTCGTTAACGGAGTCACCTAGTGCAG,13400 fluorescence intensity (a.u.)
16,ATCTGTACAGTTTGTGACTAATTTGCAAGACGAATCTTTTCGGAGTCACCTAGTGCAG,11500 fluorescence intensity (a.u.)
17,TGCAAAGTGATCGATCGAGAGTTTGTCTTCACGTCCTTTTCGGAGTCACCTAGTGCAG,8120 fluorescence intensity (a.u.)
18,GTGAACTTACTCCTTATCTTTTCAGTTCTTGTTCCAATTCCGGAGTCACCTAGTGCAG,9900 fluorescence intensity (a.u.)
19,CAACGAGCCAACGACGTCCACTATCTTGACCTCATCCCGTCGGAGTCACCTAGTGCAG,8580 fluorescence intensity (a.u.)
20,ATTTTCTCAGCTCAAGTTGCTTGCTCCTCTTCTTTCTTTCCGGAGTCACCTAGTGCAG,10200 fluorescence intensity (a.u.)
21,TGCTACTAAATCCGCTGCTCTTTTTTTGGTACCAACAATTCGGAGTCACCTAGTGCAG,9200 fluorescence intensity (a.u.)

row,Sequence,binding signal
1,GTTCTTTTGGGCAATCTCGTCTGTATTCCTTTGTCGTCTACGGAGTCACCTAGTGCAG,10800 fluorescence intensity (a.u.)
2,AATTAGCTTGTTGTTTGCTTTGTGGTCGACATGGATGAATCGGAGTCACCTAGTGCAG,10700 fluorescence intensity (a.u.)
3,GGGGTTTTTCTTATGTTAGTATATGTGTGGGATGTGTGAACGGAGTCACCTAGTGCAG,16800 fluorescence intensity (a.u.)
4,ATATATATATATATATATATATATATATATACACACACACCGGAGTCACCTAGTGCAG,22200 fluorescence intensity (a.u.)
5,CTCTGACTCTCTGTTCCAATTCCCACACGTTTCTCTCGCGCGGAGTCACCTAGTGCAG,14800 fluorescence intensity (a.u.)
6,AAACCCTCGGCCTTTTTTTCTTCCCGAAGCTCCAAGGAATCGGAGTCACCTAGTGCAG,8940 fluorescence intensity (a.u.)
7,AATCTTATCTCTATCTCATCTCTCTCCTCTGCCTTATCTCCGGAGTCACCTAGTGCAG,13100 fluorescence intensity (a.u.)
8,GTGCTGGAGGGAGGGAACGGGGAACGTGGCAACTGACACGCGGAGTCACCTAGTGCAG,9030 fluorescence intensity (a.u.)
9,TGGTCTGATCTTTTATATGCCACTGAAAATTGGCTCTTTCCGGAGTCACCTAGTGCAG,8410 fluorescence intensity (a.u.)
10,ACCAGCCACCTGCCGTTGCAGATTCTACGCGACTCATCGTCGGAGTCACCTAGTGCAG,9690 fluorescence intensity (a.u.)
11,TCTTACCCTTGGGACTCATACATCACAATCTCGAATTTAGCGGAGTCACCTAGTGCAG,8840 fluorescence intensity (a.u.)
12,GGAATTCAGGGCGTGGTGTAGTGTAAGTAACTTTAAAATTCGGAGTCACCTAGTGCAG,8890 fluorescence intensity (a.u.)
13,CCCTGTACCTGCTTCGCTGTTTTCCCCAACTTGCCAGCTTCGGAGTCACCTAGTGCAG,9720 fluorescence intensity (a.u.)
14,GCCCGGTCTGACCGGTCACATGAAATAACAGCAGTATCCTCGGAGTCACCTAGTGCAG,8420 fluorescence intensity (a.u.)
15,TCATTGCATTTGCTTCTTCTTCCACCTGAGCGCGCGCCGCCGGAGTCACCTAGTGCAG,8580 fluorescence intensity (a.u.)
16,GGCGGGGCAGACGGAGGCCGACGGCTGCAGCGGGCTGGGGCGGAGTCACCTAGTGCAG,9010 fluorescence intensity (a.u.)
17,AATTTGCATTCTATTTGGTCCTTCATTATTTTTTATTCATCGGAGTCACCTAGTGCAG,9540 fluorescence intensity (a.u.)
18,CTTTTCTCCTTCGGCTATAGTGTCACTGTCCTCGCCTTCTCGGAGTCACCTAGTGCAG,15700 fluorescence intensity (a.u.)
19,TTGGTACTACAAGCAGATGCAGTTTTCGTTTCTTACTTTTCGGAGTCACCTAGTGCAG,9260 fluorescence intensity (a.u.)
20,CACTGCATTGCTTTACTCACCAATCTCACGATATGGATCTCGGAGTCACCTAGTGCAG,8650 fluorescence intensity (a.u.)
21,TATTCTTCGTTTTTCGCGTGCACGTTTTTCAATCTGCTAGCGGAGTCACCTAGTGCAG,9210 fluorescence intensity (a.u.)

row,Sequence,binding signal
1,TCGCGCCGCTCTTATATTACGGCGCGCCGCGCTCACCTCGCGGAGTCACCTAGTGCAG,8960 fluorescence intensity (a.u.)
2,ACCACCTACTCTCTCTCTCTCTCTCTCTCATCTCCTGCCTCGGAGTCACCTAGTGCAG,12600 fluorescence intensity (a.u.)
3,CTCTCGTAAGATTCACCTACTCTTCTCTCGTCAAATTAACCGGAGTCACCTAGTGCAG,9980 fluorescence intensity (a.u.)
4,GTGCTTTAATCAGTAATTTTGCAATTGCTTTTGAATTTCACGGAGTCACCTAGTGCAG,8090 fluorescence intensity (a.u.)
5,TGCACCGTTTTTGTGCGAACATTTACTCCTTTATCCATTACGGAGTCACCTAGTGCAG,8420 fluorescence intensity (a.u.)
6,CCCGACAATCTCTCTCCCACCCCACCCCTTTCTCGTTTCGCGGAGTCACCTAGTGCAG,10300 fluorescence intensity (a.u.)
7,TCAGCTAGCGAAATGTGAAATCGTAGCCGCTCGCGTTGACCGGAGTCACCTAGTGCAG,15900 fluorescence intensity (a.u.)
8,TATTTCCAAAATCTCAATGCCACTCATTTTCATATTGGTTCGGAGTCACCTAGTGCAG,8050 fluorescence intensity (a.u.)
9,ACTGATATGTGGGTCCCATGGGTTTTATTATTTTTTCGGACGGAGTCACCTAGTGCAG,9400 fluorescence intensity (a.u.)
10,CCACCGCCCCGCCATGGACACCTCGCGCCGCTCCGCACAACGGAGTCACCTAGTGCAG,8590 fluorescence intensity (a.u.)
11,TGGTGGGTGCGAGTTGGGAAAGGCGAGAGGGAGGGAGATGCGGAGTCACCTAGTGCAG,11700 fluorescence intensity (a.u.)
12,CGGGAGTATATGTGATGTTGTTCTTTTTGTCATTTCAAGACGGAGTCACCTAGTGCAG,12700 fluorescence intensity (a.u.)
13,TTTCAATGTAGAACTCTATTCATCCTTTCTCATGTGAAACCGGAGTCACCTAGTGCAG,8250 fluorescence intensity (a.u.)
14,TTTTCTAAGCTTCAGTTTTCTTGTTTTTCTATTTTGCTTTCGGAGTCACCTAGTGCAG,9430 fluorescence intensity (a.u.)
15,CAATTCGCACCAAACCGACCGCCACCGCCGCACCACCACCCGGAGTCACCTAGTGCAG,13700 fluorescence intensity (a.u.)
16,ACCTTTTCCGGTTCATAATTGCCCGGCTAGCCGCCGGGAGCGGAGTCACCTAGTGCAG,8580 fluorescence intensity (a.u.)
17,CACCACCGTCTGCTATTGCCAAAGCCACCCTGTTGCACACCGGAGTCACCTAGTGCAG,8720 fluorescence intensity (a.u.)
18,ATGCAGGCCTTAGTTTCCCTAGTTACCCTGGTGTTCCTGTCGGAGTCACCTAGTGCAG,8040 fluorescence intensity (a.u.)
19,AATACCCTCACCTATACGCGCACTGTCATTTCTTCCTTGCCGGAGTCACCTAGTGCAG,10200 fluorescence intensity (a.u.)
20,CGTACTCGTCGATAGCATTTCTTGGATTTGGGTGTTTGTACGGAGTCACCTAGTGCAG,9270 fluorescence intensity (a.u.)
21,TCTTTCATACGCTTGTTCCATCAAGTTAATCTGCTGCTTACGGAGTCACCTAGTGCAG,8520 fluorescence intensity (a.u.)
